# Experimental data published in the supplement of paper PMC8728848.
# This is one part of the list.
# Legend:
# Test in all cases: glycan array binding signal (z-score within array); higher = stronger binding
# Settings in all cases: glycan notation: IUPAC condensed, linker removed
# Neu5Ac(a2-8)Neu5Ac = biological target: Neu5Ac(a2-8)Neu5Ac
# Method in brief: (§1)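 Columns mapping to the same glycan were averaged after glycan names were converted to IUPAC-condensed notation. The data come from 3228 arrays in the Consortium for Functional Glycomics database, limited to those with an available protein sequence. Binding is reported as a within-array Z-score averaged across arrays of one protein sequence and across linkers.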
# [1] = biological target: Neu5Ac(a2-8)Neu5Ac(a2-3)Gal(b1-3)GalNAc(b1-4)[Neu5Ac(a2-3)]Gal(b1-4)Glc
# Method in brief: as §1
# [2] = biological target: Neu5Ac(a2-8)Neu5Ac(a2-3)Gal(b1-3)GalNAc(b1-4)[Neu5Ac(a2-8)Neu5Ac(a2-3)]Gal(b1-4)Glc
# Method in brief: as §1
# [3] = biological target: Neu5Ac(a2-8)Neu5Ac(a2-3)Gal(b1-4)Glc
# Method in brief: as §1
# [4] = biological target: Neu5Ac(a2-8)Neu5Ac(a2-3)Gal(b1-4)GlcNAc
# Method in brief: as §1
# [5] = biological target: Neu5Ac(a2-8)Neu5Ac(a2-3)[Gal(b1-3)GalNAc(b1-4)]Gal(b1-4)Glc
# Method in brief: as §1
# [6] = biological target: Neu5Ac(a2-8)Neu5Ac(a2-3)[GalNAc(b1-4)]Gal(b1-4)Glc
# Method in brief: as §1
# [7] = biological target: Neu5Ac(a2-8)Neu5Ac(a2-8)Neu5Ac
# Method in brief: as §1
# [8] = biological target: Neu5Ac(a2-8)Neu5Ac(a2-8)Neu5Ac(a2-3)Gal(b1-4)Glc
# Method in brief: as §1
# [9] = biological target: Neu5Ac(a2-8)Neu5Ac(a2-8)Neu5Ac(a2-3)[Gal(b1-3)GalNAc(b1-4)]Gal(b1-4)Glc
# Method in brief: as §1
# [10] = biological target: Neu5Ac(a2-8)Neu5Ac(a2-8)Neu5Ac(a2-3)[GalNAc(b1-4)]Gal(b1-4)Glc
# Method in brief: as §1
# [11] = biological target: Neu5Ac(a2-8)Neu5Ac(a2-8)Neu5Ac(a2-8)Neu5Ac(a2-3)[GalNAc(b1-4)]Gal(b1-4)Glc
# Method in brief: as §1
# [12] = biological target: Neu5Ac(a2-8)Neu5Gc(a2-3)Gal(b1-4)GlcNAc
# Method in brief: as §1
# [13] = biological target: Neu5Ac(b2-6)Gal(b1-4)GlcNAc
# Method in brief: as §1
# Neu5Ac(b2-6)GalNAc = biological target: Neu5Ac(b2-6)GalNAc
# Method in brief: as §1
# [14] = biological target: Neu5Ac9Ac(a2-3)Gal(b1-3)GlcNAc
# Method in brief: as §1
# [15] = biological target: Neu5Ac9Ac(a2-3)Gal(b1-4)GlcNAc
# Method in brief: as §1
# [16] = biological target: Neu5Ac9Ac(a2-6)Gal(b1-4)GlcNAc
# Method in brief: as §1
# [17] = biological target: Neu5Gc(a2-3)Gal(b1-3)GlcNAc
# Method in brief: as §1
# [18] = biological target: Neu5Gc(a2-3)Gal(b1-3)[Fuc(a1-4)]GlcNAc
# Method in brief: as §1
# Neu5Gc(a2-3)Gal(b1-4)Glc = biological target: Neu5Gc(a2-3)Gal(b1-4)Glc
# Method in brief: as §1
# [19] = biological target: Neu5Gc(a2-3)Gal(b1-4)GlcNAc
# Method in brief: as §1
# [20] = biological target: Neu5Gc(a2-3)Gal(b1-4)GlcNAc(b1-3)Gal(b1-4)GlcNAc(b1-2)Man(a1-3)[Neu5Gc(a2-3)Gal(b1-4)GlcNAc(b1-3)Gal(b1-4)GlcNAc(b1-2)Man(a1-6)]Man(b1-4)GlcNAc(b1-4)GlcNAc
# Method in brief: as §1
# [21] = biological target: Neu5Gc(a2-3)Gal(b1-4)[Fuc(a1-3)]GlcNAc
# Method in brief: as §1
# [22] = biological target: Neu5Gc(a2-6)Gal(b1-4)GlcNAc
# Method in brief: as §1
# Neu5Gc(a2-6)GalNAc = biological target: Neu5Gc(a2-6)GalNAc
# Method in brief: as §1
# [23] = biological target: Neu5Gc(a2-8)Neu5Ac(a2-3)Gal(b1-4)GlcNAc
# Method in brief: as §1
# [24] = biological target: Neu5Gc(a2-8)Neu5Gc(a2-3)Gal(b1-4)GlcNAc
# Method in brief: as §1
# [25] = biological target: Neu5Gc(a2-8)Neu5Gc(a2-3)Gal(b1-4)GlcNAc(b1-3)Gal(b1-4)GlcNAc
# Method in brief: as §1
# [26] = biological target: Neu5Gc(a2-8)Neu5Gc(a2-6)Gal(b1-4)GlcNAc
# Method in brief: as §1
# [27] = biological target: Neu5Gc(b2-6)Gal(b1-4)GlcNAc
# Method in brief: as §1
binder,measurement,setting,value
his-Lectin-24A (Drosophila melanogaster) (protein) MFRLSVLVLNLLLVSHEFSAGTAKIEIQPLPALCNGYCFPTLKPVMEYVAIHQDKWNTCTEILANEARKDQIQLNIQLDALKADVSNIKASQLSKDEKLDRMEREQFAMHESLETINRYLTVKLDRTKLQLEAIKNTMDYMKAQMDGYFSAINGVQCLQPGFEKIGDRYFYIEEDVELNWLDAQAKCRRMGGHLASIKTKQEFDAIVEKLDDSKSYFLGVNENTKTGDFVSAASGKSCLYHEWGPGEPHHNNDQERCVSILRKLMHVGNCTYEKRFICQYGI,glycan array binding signal (z-score),Neu5Ac(a2-8)Neu5Ac,-0.128
same,glycan array binding signal (z-score),[1],2.87
same,glycan array binding signal (z-score),[2],0.393
same,glycan array binding signal (z-score),[3],-0.828
same,glycan array binding signal (z-score),[4],-0.208
same,glycan array binding signal (z-score),[5],0.25
same,glycan array binding signal (z-score),[6],-0.653
same,glycan array binding signal (z-score),[7],0.094
same,glycan array binding signal (z-score),[8],2.02
same,glycan array binding signal (z-score),[9],0.095
same,glycan array binding signal (z-score),[10],0.981
same,glycan array binding signal (z-score),[11],0.214
same,glycan array binding signal (z-score),[12],0.038
same,glycan array binding signal (z-score),[13],-0.192
same,glycan array binding signal (z-score),Neu5Ac(b2-6)GalNAc,-0.412
same,glycan array binding signal (z-score),[14],-0.873
same,glycan array binding signal (z-score),[15],-1.15
same,glycan array binding signal (z-score),[16],0.481
same,glycan array binding signal (z-score),[17],-1.69
same,glycan array binding signal (z-score),[18],-0.723
same,glycan array binding signal (z-score),Neu5Gc(a2-3)Gal(b1-4)Glc,-1.15
same,glycan array binding signal (z-score),[19],-0.377
same,glycan array binding signal (z-score),[20],0.727
same,glycan array binding signal (z-score),[21],-0.231
same,glycan array binding signal (z-score),[22],-0.588
same,glycan array binding signal (z-score),Neu5Gc(a2-6)GalNAc,-1.52
same,glycan array binding signal (z-score),[23],-0.218
same,glycan array binding signal (z-score),[24],-0.569
same,glycan array binding signal (z-score),[25],-0.999
same,glycan array binding signal (z-score),[26],1.13
same,glycan array binding signal (z-score),[27],-0.429

# Some of the entries above in another layout:
binder | measurement | setting | value
his-Lectin-24A (Drosophila melanogaster) (protein) MFRLSVLVLNLLLVSHEFSAGTAKIEIQPLPALCNGYCFPTLKPVMEYVAIHQDKWNTCTEILANEARKDQIQLNIQLDALKADVSNIKASQLSKDEKLDRMEREQFAMHESLETINRYLTVKLDRTKLQLEAIKNTMDYMKAQMDGYFSAINGVQCLQPGFEKIGDRYFYIEEDVELNWLDAQAKCRRMGGHLASIKTKQEFDAIVEKLDDSKSYFLGVNENTKTGDFVSAASGKSCLYHEWGPGEPHHNNDQERCVSILRKLMHVGNCTYEKRFICQYGI | glycan array binding signal (z-score) | [3] | -0.828
same | glycan array binding signal (z-score) | [12] | 0.038
same | glycan array binding signal (z-score) | [17] | -1.69
same | glycan array binding signal (z-score) | [20] | 0.727
same | glycan array binding signal (z-score) | [24] | -0.569
same | glycan array binding signal (z-score) | [26] | 1.13
